These are yes or no findings as the source states them, for the method shown.
Key:
[1] = target: P. falciparum essential light chain (PfELC) (P. falciparum 3D7) (UniProt Q8IJM4); assay: NMR + non-reducing SDS-PAGE + SAXS; isolated PfELC and PfELC-N in solution; both purified
[2] = target: PfELC N-terminal domain (PfELC-N) (P. falciparum 3D7) (UniProt Q8IJM4); assay: as above
[3] = target: P. falciparum essential light chain (PfELC) (P. falciparum 3D7) (UniProt Q8IJM4); assay: ITC; PfELC mixed with PfMyoA peptides of the previously described binding sites; precipitation upon mixing; the method is taken from 'we measured the binding affinity', conditions not given; both purified

The chains behind the UniProt entries cited, without tags or fusion partners. Where a name states a change or a piece, a line headed by the entry shows the natural chain unless it says otherwise.
UniProt Q8IJM4: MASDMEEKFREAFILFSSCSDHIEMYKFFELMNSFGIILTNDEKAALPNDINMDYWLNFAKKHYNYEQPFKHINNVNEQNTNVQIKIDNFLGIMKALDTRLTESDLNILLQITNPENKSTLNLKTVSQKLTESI
UniProt Q8IDR3: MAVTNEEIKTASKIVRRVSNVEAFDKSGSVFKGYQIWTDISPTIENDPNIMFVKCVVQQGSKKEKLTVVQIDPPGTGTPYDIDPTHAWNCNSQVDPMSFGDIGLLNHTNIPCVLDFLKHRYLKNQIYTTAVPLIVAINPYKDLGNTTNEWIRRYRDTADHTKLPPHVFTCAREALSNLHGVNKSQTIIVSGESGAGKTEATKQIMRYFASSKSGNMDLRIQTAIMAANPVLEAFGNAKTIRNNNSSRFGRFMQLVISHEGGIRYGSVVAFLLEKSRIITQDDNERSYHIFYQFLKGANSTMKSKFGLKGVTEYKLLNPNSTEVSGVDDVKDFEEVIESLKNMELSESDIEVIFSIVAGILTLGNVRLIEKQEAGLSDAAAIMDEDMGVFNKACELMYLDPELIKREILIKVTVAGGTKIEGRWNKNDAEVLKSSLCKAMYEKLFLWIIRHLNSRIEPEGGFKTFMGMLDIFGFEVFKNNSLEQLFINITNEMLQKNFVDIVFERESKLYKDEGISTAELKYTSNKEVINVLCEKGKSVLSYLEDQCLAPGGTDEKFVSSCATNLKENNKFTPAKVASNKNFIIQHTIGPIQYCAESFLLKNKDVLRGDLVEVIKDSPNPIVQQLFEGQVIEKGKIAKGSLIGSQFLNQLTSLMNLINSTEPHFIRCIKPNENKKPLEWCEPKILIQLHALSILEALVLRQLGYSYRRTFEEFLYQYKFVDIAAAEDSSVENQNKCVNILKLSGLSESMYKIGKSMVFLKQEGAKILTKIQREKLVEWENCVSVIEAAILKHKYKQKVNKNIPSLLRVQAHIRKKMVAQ

Substance | binding [3] | also measured
P. falciparum essential light chain (PfELC) (from UniProt Q8IJM4 1-134) |  | binding [1]: no binding
PfELC N-terminal domain (PfELC-N) (from UniProt Q8IJM4 1-74) (domain or fragment) |  | binding [2]: no binding
PfMyoA peptide, residues 786-803 (from UniProt Q8IDR3 786-803) | no binding | 
PfMyoA peptide, residues 801-818 (from UniProt Q8IDR3 801-818) | no binding | 
